Test results: article PMC12795675
Results are given in words; binding and its absence hold for the method and conditions named. In cells and extracts the contact can be indirect. Some binding calls cover weakened binding; strength is not graded here.

By UniProt entry, the sequences of proteins in these tests, tags left out. Residues count along the entry.
UniProt Q96AP0: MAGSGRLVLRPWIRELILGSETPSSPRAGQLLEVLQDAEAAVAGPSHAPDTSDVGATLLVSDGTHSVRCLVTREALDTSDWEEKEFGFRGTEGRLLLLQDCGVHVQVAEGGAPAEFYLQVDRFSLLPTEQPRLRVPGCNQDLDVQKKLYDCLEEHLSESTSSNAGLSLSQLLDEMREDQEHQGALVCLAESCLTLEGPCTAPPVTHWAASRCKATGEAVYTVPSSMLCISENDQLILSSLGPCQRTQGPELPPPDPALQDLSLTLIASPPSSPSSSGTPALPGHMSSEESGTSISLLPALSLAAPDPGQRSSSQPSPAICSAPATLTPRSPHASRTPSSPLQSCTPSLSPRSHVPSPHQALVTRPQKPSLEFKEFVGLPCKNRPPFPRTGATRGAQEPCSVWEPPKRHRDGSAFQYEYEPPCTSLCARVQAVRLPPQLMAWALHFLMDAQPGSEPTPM
UniProt P11021, residues 19-654: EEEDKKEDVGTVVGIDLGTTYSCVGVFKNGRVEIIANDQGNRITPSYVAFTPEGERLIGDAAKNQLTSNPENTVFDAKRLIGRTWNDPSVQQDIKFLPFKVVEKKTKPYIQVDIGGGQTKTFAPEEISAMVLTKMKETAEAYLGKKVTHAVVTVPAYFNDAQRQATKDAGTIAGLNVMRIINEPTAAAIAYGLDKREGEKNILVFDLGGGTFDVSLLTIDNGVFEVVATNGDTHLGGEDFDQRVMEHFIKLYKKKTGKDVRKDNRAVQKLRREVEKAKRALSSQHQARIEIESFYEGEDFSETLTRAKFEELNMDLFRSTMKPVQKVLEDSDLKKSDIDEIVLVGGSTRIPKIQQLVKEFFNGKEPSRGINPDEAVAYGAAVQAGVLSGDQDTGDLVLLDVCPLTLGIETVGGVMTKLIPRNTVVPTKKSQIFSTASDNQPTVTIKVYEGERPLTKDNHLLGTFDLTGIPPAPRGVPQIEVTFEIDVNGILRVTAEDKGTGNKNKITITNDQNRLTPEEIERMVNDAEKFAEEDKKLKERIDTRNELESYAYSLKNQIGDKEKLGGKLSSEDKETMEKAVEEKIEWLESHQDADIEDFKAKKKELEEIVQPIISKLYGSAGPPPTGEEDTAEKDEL

What was measured:
[1] = biological target: Telomere-protecting protein 1 (human (endogenous in MKN-45 and HGC-27)) (UniProt Q96AP0); assay: co-IP; endogenous proteins in lysates of MKN-45 or HGC-27 cells; indicated antibodies overnight at 4 °C, Protein G beads 2 h at 4 °C, Western blot; cells also treated with H. pylori, TPP1 overexpression (AAV-TPP1) or TPP1 knockdown (AAV-sh-TPP1)
[2] = biological target: 78 kDa glucose-regulated protein (human (endogenous in MKN-45 and HGC-27)) (UniProt P11021); assay: as above

binding [1] | binding [2] | Substance
binds |  | 78 kDa glucose-regulated protein (from UniProt P11021 19-654)
 | binds | Telomere-protecting protein 1 (from UniProt Q96AP0 1-458)
